Measured values taken from patent US20240084330A1.
No constants are given. Whether binding was seen depends on the method and setting. Some entries that bind do so weakly or less than the wild type. Sequences can lack the tags named with a protein.

Molecular target: MmPEG10 (mouse PEG10 produced in E. coli, tags removed) (mouse) (UniProt Q7TN75)
Experiment: self-assembly of E. coli-produced protein; size exclusion and electron microscopy

binding: binds
B1: MmPEG10 (mouse PEG10 produced in E. coli, tags removed) (protein, UniProt Q7TN75 1-958, looked up)
chain: MAAAGGSSNCPPPPPPPPPNNNNNNNTPKSPGVPDAEDDDERRHDELPEDINNFDEDMNRQFENMNLLDQVELLAQSYSLLDHLDDFDDDDEDDDFDPEPDQDELPEYSDDDDLELQGAAAAPIPNFFSDDDCLEDLPEKFDGNPDMLGPFMYQCQLFMEKSTRDFSVDRIRVCFVTSMLIGRAARWATAKLQRCTYLMHNYTAFMMELKHVFEDPQRREAAKRKIRRLRQGPGPVVDYSNAFQMIAQDLDWTEPALMDQFQEGLNPDIRAELSRQEAPKTLAALITACIHIERRLARDAAAKPDPSPRALVMPPNSQTDPTEPVGGARMRLSKEEKERRRKMNLCLYCGNGGHFADTCPAKASKNSPPGKLPGPAVGGPSATGPERIRSPPSEASTQHLQVMLQIHMPGRPTLFVRAMIDSGASGNFIDQDFVIQNAIPLRIKDWPVMVEAIDGHPIASGPIILETHHLIVDLGDHREILSFDVTQSPFFPIVLGIRWLSTHDPHITWSTRSIVFNSDYCRLRCRMFAQIPSNLLFTVPQPNLHPYLLHHVHPHVHPHMHQHLHQHLHQFLHPDPHQYPHPDPHYHHHQQADMQHQLQQYLYQYLYYHLYPVMHHHLPPDQHEHLHEYLHQYLHQYLHQFLHHHLHPDLHQYLYQYLHNHMNPDPHHHPHPDPPQDPHHPPHQDPHQHPDPHQDPPHQDPHQDAHQDPHMDPHLHQHQHPQPQPHPQQHPNHPQQPPFFYHMAGFRIYHPVRYYYIQNVYTPVDEHVYPGHRVVDPNIEMIPGAHSLPSGHLYSMSESEMNALRNFVDRNVKDGLMTPTVAPNGAQVLQVKRGWKLQVTYNCRAPQSGTIQNQYLRMSLPNMGDPAHLASYGEFVQVPGYPYPAYVYYTSPHMMTAWYPVGRDVHGRIIVVPVVITWSQNTNRQPPVPQYPPPQPPPPPPPPPPPPPPPPASSCSAA
